Test results reported in PubChem BioAssay AID2551 (National Center for Advancing Translational Sciences (NCATS), 2010).
The campaign covered roughly 310,000 compounds. About 17,000 (5.5%) were called active. This list was built around the results that the source calls inconclusive (neither active nor inactive); the mix of calls is not that of the screen. Calls follow the shape of the dose curve; as a rule, active = well fitted inhibition curve with a large enough effect; inconclusive = small, poorly fitted or top-dose-only effect, or effect the other way; inactive = no such curve, though single readings can be large or run the other way. Potencies beside an inconclusive call are fits to weak or partial responses and may not hold up.

Amino acid sequences for entries named in this document (tags omitted). A change or cut given only in a name is not applied to a line headed by its entry.
UniProt P51450: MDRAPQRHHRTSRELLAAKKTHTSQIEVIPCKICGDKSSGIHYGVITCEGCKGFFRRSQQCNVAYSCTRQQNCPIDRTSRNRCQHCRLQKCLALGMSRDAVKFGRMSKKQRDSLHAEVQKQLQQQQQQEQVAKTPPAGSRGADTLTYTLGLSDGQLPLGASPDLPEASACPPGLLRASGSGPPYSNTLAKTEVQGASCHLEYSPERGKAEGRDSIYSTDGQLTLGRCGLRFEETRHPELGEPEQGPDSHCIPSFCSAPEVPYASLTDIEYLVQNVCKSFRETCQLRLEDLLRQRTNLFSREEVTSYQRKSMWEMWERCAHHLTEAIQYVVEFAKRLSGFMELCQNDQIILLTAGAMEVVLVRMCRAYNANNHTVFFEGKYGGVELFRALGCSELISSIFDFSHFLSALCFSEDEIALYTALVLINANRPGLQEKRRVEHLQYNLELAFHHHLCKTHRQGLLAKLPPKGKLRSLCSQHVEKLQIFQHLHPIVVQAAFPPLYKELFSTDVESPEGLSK

The molecules below were run against Nuclear receptor ROR-gamma (Mus musculus) (UniProt P51450) (assay: qHTS for inhibitors of ROR gamma transcriptional activity). Details: Drosophila S2 Gal4-RORgamma UAS-luciferase reporter, 20 h; activity change, negative = inhibition: at 53.6 µM (top of the series).
Procedure, shortened: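 Drosophila S2 cells stably expressing Gal4-DBD/mouse RORγ fusion under metallothionein promoter plus UAS-luciferase; compound 1 h, then 700 uM CuSO4 induction for 20 h at ambient temperature; inhibition read as reduced luminescence.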
% is scaled to controls: 0 for no effect and ±100 for the full control effect; potency is read from the fitted curve at half-maximal effect.
Also: nearly all actives have a fitted effect of over 60% in size.

Potency, active:
O=C(NC(=S)Nc1ccccc1N1CCOCC1)c1ccc(-c2cccc(Cl)c2)o1 2.51 µM
CCOc1ccc2nc(N/C(N)=N/C(=S)Nc3cccc(C)c3)nc(C)c2c1 1.58 µM
N#CC(C#N)=C1C=CC=CN1/C(=C\c1ccco1)C(=O)c1ccc(Cl)cc1 5.01 µM
O=C(N/N=C\c1cn[nH]c1-c1ccccc1)c1ccc([N+](=O)[O-])cc1 11.2 µM
Cc1cc(C)nc(Sc2ccc([N+](=O)[O-])cc2[N+](=O)[O-])n1 8.91 µM
Cc1nnc(N(Cc2ccco2)C(=O)c2cccc(C#N)c2)s1 12.6 µM
S=c1[nH]nc(COc2ccc(Cl)cc2)n1Cc1ccco1 3.16 µM
Cc1nn(C)c(-c2n[nH]c(=S)n2-c2ccccc2)c1Cl 11.2 µM
O=S(=O)(c1ccc(Br)cc1)c1cnc2ccccc2n1 11.2 µM
COc1cc(/C=N/O)cc(Br)c1OCc1ccc(Cl)cc1 5.62 µM
COc1ccc(-c2cc3cccc(OC)c3oc2=O)cc1 10 µM
COc1ccc(/C=C/C(=O)c2ccccn2)cc1 11.2 µM
Cc1cnn(-c2nc(-c3ccccc3)cc(-c3ccccc3)n2)c1 3.16 µM

Potency, inconclusive:
CCS(=O)(=O)N1CCN(c2ccc(C(=O)NC3C4CC5CC(C4)CC3C5)cc2[N+](=O)[O-])CC1 (stereo not given) 14.1 µM [activator, partial curve]
CC1SC(C)C(=O)N(CC(=O)NCc2ccc(F)cc2)C1=O (stereo not given) 35.5 µM [inhibitor, single point]
COc1ccc(-n2c(Cc3ccccc3)nnc2SCC(=O)N2CCCc3ccccc32)cc1 14.1 µM [activator, single point]
CC(=O)c1cccc(NC(=O)Nc2cccs2)c1 35.5 µM [inhibitor, single point]
COc1cc(/C=C/C(=O)NC(C)(C)C)ccc1OCc1ccccc1 12.6 µM [activator, single point]
COc1ccc([C@@]2(O)c3c(ccc(CC=C(C)C)c3O)NC(=O)[C@@H]2OC)cc1 0.251 µM [inhibitor, single point]
Cc1ccccc1Nc1nnc(SCC(=O)Nc2ccccc2[N+](=O)[O-])s1 4.47 µM [inhibitor, partial curve]
COc1ccc(C(=O)NC(=S)Nc2cccnc2)cc1[N+](=O)[O-] 20 µM [inhibitor, single point]
O=C(O)c1ccc(N=Nc2c(O)[nH]c3ccc(Br)cc23)cc1 1.41 µM [activator, full curve, poor fit]
Nc1c(-c2cccs2)cnn1-c1nc(-c2ccc(Cl)cc2Cl)cs1 35.5 µM [inhibitor, single point]
CCCCCOC(=O)C1=C(C)N(C)C(=O)NC1c1cc(Br)c(O)c(OC)c1 (stereo not given) 25.1 µM [activator, single point]
CC(=O)OC1CCC2(C)C(COc3ccc4ccc(=O)oc4c3)C(C)(O)CCC2C1(C)C (stereo not given) 25.1 µM [activator, single point]
Cn1cc(C(=O)N/N=C/C=C/c2ccccc2)ccc1=O 22.4 µM [inhibitor, single point]
Cc1cc(=O)[nH]c(N/N=C/c2ccc(Br)s2)n1 2.82 µM [inhibitor, single point]
CC1CN(C(=O)c2ccc(CNS(=O)(=O)c3cccc(C(F)(F)F)c3)cc2)CC(C)O1 (stereo not given) 5.62 µM [activator, single point]
O=c1c2ccccc2oc2ccc(NCCCn3ccnc3)cc12 11.2 µM [inhibitor, single point]
CC(C)c1ccc(NC2CCCN(C(=O)c3n[nH]c4c3CCC4)C2)cc1 (stereo not given) 35.5 µM [activator, single point]
CCCN1CCN(CCCNC(=O)c2cc3c(=O)[nH]c4ccccc4c3s2)CC1 28.2 µM [inhibitor, single point]
CCOc1ccccc1Nc1nc(-c2sc(NC(=O)c3ccccc3)nc2C)cs1 28.2 µM [inhibitor, partial curve]
Cn1c(Cc2ccccc2)n[nH]c1=S 22.4 µM [inhibitor, single point]
O=C(NNC(=O)c1cc(-c2ccccc2)n(-c2ccccc2)n1)c1cccc([N+](=O)[O-])c1 15.8 µM [inhibitor, single point]
COc1ccc2sc(N3C(=O)CC(Cc4cccc(C)c4)C3=O)nc2c1 (stereo not given) 7.94 µM [activator, partial curve]
Cc1cccc(Nc2n[nH]c(=S)s2)c1C 17.8 µM [inhibitor, single point]
CCC(C)c1ccc(NC(=O)Nc2cnccn2)cc1 (stereo not given) 15.8 µM [activator, single point]
Cc1ccc(-c2noc(CCC(=O)NC3CCN(Cc4ccccc4)CC3)n2)cc1 1.41 µM [activator, partial curve]
COc1ccc(-c2nc3n(c2C)CCC3)cc1 8.91 µM [inhibitor, single point]
COc1ccccc1CCNC(=O)C(C)n1nc(C)c2c(C)n(-c3ccccc3)nc2c1=O (stereo not given) 12.6 µM [inhibitor, partial curve]
O=C(NC(NC(=S)Nc1ccccc1O)C(Cl)(Cl)Cl)c1ccco1 (stereo not given) 35.5 µM [activator, single point]
COc1ccc(N2CCN(C(=S)Nc3ccc(S(N)(=O)=O)cc3)CC2)cc1 25.1 µM [activator, single point]
O=C(NCc1cccs1)C1CCN(S(=O)(=O)c2ccccc2F)CC1 15.8 µM [activator, partial curve, poor fit]
O=C(c1cccnc1)N1N=C(C2CC2)CC1(O)C(F)(F)F (stereo not given) 12.6 µM [inhibitor, single point]
c1ccc2c(c1)[nH]c1c(N3CCSCC3)ncnc12 20 µM [activator, single point]
Cc1ccccc1Nc1nc(CSc2nnnn2-c2ccccc2)cs1 25.1 µM [inhibitor, single point]
O=C(NCc1ccco1)c1ccccc1-c1ccc(C(F)(F)F)cc1 3.16 µM [activator, partial curve, poor fit]
COc1ccc(N2CCN(CCC(=O)c3ccc4ccccc4c3)CC2)cc1 35.5 µM [inhibitor, single point]
Nc1cc(C(F)(F)F)ccc1C(=O)O 0.891 µM [activator, full curve, poor fit]
CCOC(=O)CCSc1nc(C(C)(C)C)cc(C(F)(F)F)c1C#N 35.5 µM [activator, single point]
CS(=O)(=O)NC(=O)CCC/C=C\C[C@H]1C(=O)C[C@@H](O)[C@@H]1/C=C/[C@@H](O)COc1ccccc1 2.51 µM [inhibitor, partial curve, poor fit]
COCc1cc(C)nc(OCC(=O)N/N=C\c2cc(C)n(-c3cccc(C(F)(F)F)c3)c2C)c1C#N 0.158 µM [inhibitor, full curve, poor fit]
O=S(=O)(NCC1CCCO1)c1ccc(-c2ccc(Cl)cc2)cc1 (stereo not given) 14.1 µM [inhibitor, single point]
Cc1cccc(C)c1NC(=S)N(Cc1ccccc1)Cc1cccnc1 31.6 µM [inhibitor, single point]
CN(C)c1nc(NCc2ccccc2)nc(SCC(=O)Nc2ccccc2Cl)n1 12.6 µM [activator, partial curve]

Random excerpt: 5 entries already listed.
Potency, inconclusive:
Cn1c(Cc2ccccc2)n[nH]c1=S 22.4 µM [inhibitor, single point]
COc1ccc(-n2c(Cc3ccccc3)nnc2SCC(=O)N2CCCc3ccccc32)cc1 14.1 µM [activator, single point]
CCCN1CCN(CCCNC(=O)c2cc3c(=O)[nH]c4ccccc4c3s2)CC1 28.2 µM [inhibitor, single point]
CC(C)c1ccc(NC2CCCN(C(=O)c3n[nH]c4c3CCC4)C2)cc1 (stereo not given) 35.5 µM [activator, single point]
COc1ccc2sc(N3C(=O)CC(Cc4cccc(C)c4)C3=O)nc2c1 (stereo not given) 7.94 µM [activator, partial curve]

Next part.

Activity change, negative = inhibition, inactive:
Cc1cccc(C(=O)Nc2nnc(S(=O)(=O)N3CCOCC3)s2)c1 27.3%
CC(C)n1c(O)c(N=NC(=O)CNC(=O)Cc2ccc(Cl)cc2)c2ccccc21 27.1%
COc1ccccc1CN1CCCC2(CCN(C(=O)c3cnccn3)CC2)C1 -0.277%
O=C(c1ccc(NC2=NC3CS(=O)(=O)CC3S2)cc1)N(CCO)Cc1ccccc1 (stereo not given) -21.7%
CCc1ccc(NC(=O)CS(=O)CC(=O)NCCCc2ccccc2)cc1 (stereo not given) -11.9%
CCCCCOc1ccc(C(=O)CCN2CCOCC2)cc1 -5.99% [at 1.91 µM]
Cc1ccc2nc(N3C(=O)C(O)=C(C(=O)c4ccco4)C3c3ccc(O)cc3)sc2c1 (stereo not given) 1.89%
O=C(NCCN1CCOCC1)c1nn2c(c1Cl)NC(c1ccccc1)CC2C(F)(F)F (stereo not given) -13.9%
Cc1nc(-c2ccc(NS(=O)(=O)c3ccccc3)cc2)cs1 -2.24%
COc1cccc(C(C(=O)NC2CCCCC2)N(C(=O)CNC(=O)c2ccco2)c2cccnc2)c1 (stereo not given) 5%
Cc1ccc(S(=O)(=O)NCC(=O)NCC(=O)OCc2c(F)cccc2Cl)cc1 22.8%
COc1ccc(CCNC(=O)CN(C)S(=O)(=O)c2ccc(OC)cc2)cc1 -4.94% [at 1.91 µM]
COc1ccc(-c2cc(C(F)(F)F)nc(SCC(=O)NCc3ccco3)n2)cc1OC -15.8%
Cc1cccc(N2CCN(C(=O)c3ccc(CNc4c(N5CCC(C)CC5)c(=O)c4=O)cc3)CC2)c1C -12.6%
CN1CCN(CCCNC(=O)c2cc3c(-c4ccc(Cl)cc4)nn(C)c3s2)CC1 1.37%
